Test results reported in publication doi:10.1101/2023.08.19.553944.
Results are given in words; binding and its absence hold for the method and conditions named. Binding seen in cells or lysates may run through a third protein. Some entries that bind do so weakly or less than the wild type.

Protein sequences, listed by entry. Tags and fused reporters are not part of them.
UniProt P26599: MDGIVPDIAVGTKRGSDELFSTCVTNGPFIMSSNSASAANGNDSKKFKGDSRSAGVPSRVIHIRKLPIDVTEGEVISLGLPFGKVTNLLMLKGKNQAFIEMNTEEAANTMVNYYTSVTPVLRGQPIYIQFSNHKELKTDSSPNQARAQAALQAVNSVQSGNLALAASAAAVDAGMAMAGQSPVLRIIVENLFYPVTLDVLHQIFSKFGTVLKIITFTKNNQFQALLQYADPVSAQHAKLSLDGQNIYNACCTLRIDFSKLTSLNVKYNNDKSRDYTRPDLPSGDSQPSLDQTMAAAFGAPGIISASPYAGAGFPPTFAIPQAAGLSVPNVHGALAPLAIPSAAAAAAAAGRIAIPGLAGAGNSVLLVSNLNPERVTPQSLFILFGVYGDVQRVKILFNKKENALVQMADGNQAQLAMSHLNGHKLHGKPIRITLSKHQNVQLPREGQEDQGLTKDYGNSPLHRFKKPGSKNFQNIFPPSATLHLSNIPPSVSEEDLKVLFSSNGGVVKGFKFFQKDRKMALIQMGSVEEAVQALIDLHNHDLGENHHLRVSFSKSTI

Each binder was assayed against GST-tagged PTBP1 (Polypyrimidine Tract-Binding Protein 1, longer form) (UniProt P26599) (assay: pull-down).

Binder | binding
Raver1 (endogenous) (protein, UniProt Q8IY67 1-606) MAADVSVTHRPPLSPKSGAEVEAGDAAERRAPEEELPPLDPEEIRKRLEHTERQFRNRRKILIRGLPGDVTNQEVHDLLSDYELKYCFVDKYKGTAFVTLLNGEQAEAAINAFHQSRLRERELSVQLQPTDALLCVANLPPSLTQQQFEELVRPFGSLERCFLVYSERTGQSKGYGFAEYMKKDSAARAKSDLLGKPLGPRTLYVHWTDAGQLTPALLHSRCLCVDRLPPGFNDVDALCRALSAVHSPTFCQLACGQDGQLKGFAVLEYETAEMAEEAQQQADGLSLGGSHLRVSFCAPGPPGRSMLAALIAAQATALNRGKGLLPEPNILQLLNNLGPSASLQLLLNPLLHGSAGGKQGLLGAPPAMPLLNGPALSTALLQLALQTQGQKKPGILGDSPLGALQPGAQPANPLLGELPAGGGLPPELPPRRGKPPPLLPSVLGPAGGDREALGLGPPAAQLTPPPAPVGLRGSGLRGPLSHFYSGSPTSYFTSGLQAGLKQSHLSKAIGSSPLGSGEGLLGLSPGPNGHSHLLKVRAGGGDMQGWEAPAPQRPLTRPALPSVSRPHWAARNAALPTCCPRPSPAQKAAMWASTPRASAATTRTPT | binds
CCAR1 (endogenous) (protein, UniProt Q8IX12 1-1150) MAQFGGQKNPPWATQFTATAVSQPAALGVQQPSLLGASPTIYTQQTALAAAGLTTQTPANYQLTQTAALQQQAAAAAAALQQQYSQPQQALYSVQQQLQQPQQTLLTQPAVALPTSLSLSTPQPTAQITVSYPTPRSSQQQTQPQKQRVFTGVVTKLHDTFGFVDEDVFFQLSAVKGKTPQVGDRVLVEATYNPNMPFKWNAQRIQTLPNQNQSQTQPLLKTPPAVLQPIAPQTTFGVQTQPQPQSLLQAQISAASITPLLQTQPQPLLQQPQQKAGLLQPPVRIVSQPQPARRLDPPSRFSGRNDRGDQVPNRKDDRSRERERERRRSRERSPQRKRSRERSPRRERERSPRRVRRVVPRYTVQFSKFSLDCPSCDMMELRRRYQNLYIPSDFFDAQFTWVDAFPLSRPFQLGNYCNFYVMHREVESLEKNMAILDPPDADHLYSAKVMLMASPSMEDLYHKSCALAEDPQELRDGFQHPARLVKFLVGMKGKDEAMAIGGHWSPSLDGPDPEKDPSVLIKTAIRCCKALTGIDLSVCTQWYRFAEIRYHRPEETHKGRTVPAHVETVVLFFPDVWHCLPTRSEWETLSRGYKQQLVEKLQGERKEADGEQDEEEKDDGEAKEISTPTHWSKLDPKTMKVNDLRKELESRALSSKGLKSQLIARLTKQLKVEEQKEEQKELEKSEKEEDEDDDRKSEDDKEEEERKRQEEIERQRRERRYILPDEPAIIVHPNWAAKSGKFDCSIMSLSVLLDYRLEDNKEHSFEVSLFAELFNEMLQRDFGVRIYKSLLSLPEKEDKKEKDKKSKKDERKDKKEERDDETDEPKPKRRKSGDDKDKKEDRDERKKEDKRKDDSKDDDETEEDNNQDEYDPMEAEEAEDEEDDRDEEEMTKRDDKRDINRYCKERPSKDKEKEKTQMITINRDLLMAFVYFDQSHCGYLLEKDLEEILYTLGLHLSRAQVKKLLNKVVLRESCFYRKLTDTSKDEENHEESESLQEDMLGNRLLLPTPTVKQESKDVEENVGLIVYNGAMVDVGSLLQKLEKSEKVRAEVEQKLQLLEEKTDEDEKTILNLENSNKSLSGELREVKKDLSQLQENLKISENMNLQFENQMNKTIRNLSTVMDEIHTVLKKDNVKNEDKDQKSKENGASV | binds
Raver2 (endogenous) (protein, UniProt Q9HCJ3 1-691) MAAAAGDGGGEGGAGLGSAAGLGPGPGLRGQGPSAEAHEGAPDPMPAALHPEEVAARLQRMQRELSNRRKILVKNLPQDSNCQEVHDLLKDYDLKYCYVDRNKRTAFVTLLNGEQAQNAIQMFHQYSFRGKDLIVQLQPTDALLCITNVPISFTSEEFEELVRAYGNIERCFLVYSEVTGHSKGYGFVEYMKKDFAAKARLELLGRQLGASALFAQWMDVNLLASELIHSKCLCIDKLPSDYRDSEELLQIFSSVHKPVFCQLAQDEGSYVGGFAVVEYSTAEQAEEVQQAADGMTIKGSKVQVSFCAPGAPGRSTLAALIAAQRVMHSNQKGLLPEPNPVQIMKSLNNPAMLQVLLQPQLCGRAVKPAVLGTPHSLPHLMNPSISPAFLHLNKAHQSSVMGNTSNLFLQNLSHIPLAQQQLMKFENIHTNNKPGLLGEPPAVVLQTALGIGSVLPLKKELGHHHGEAHKTSSLIPTQTTITAGMGMLPFFPNQHIAGQAGPGHSNTQEKQPATVGMAEGNFSGSQPYLQSFPNLAAGSLLVGHHKQQQSQPKGTEISSGAASKNQTSLLGEPPKEIRLSKNPYLNLASVLPSVCLSSPASKTTLHKTGIASSILDAISQGSESQHALEKCIAYSPPFGDYAQVSSLRNEKRGSSYLISAPEGGSVECVDQHSQGTGAYYMETYLKKKRVY | binds
